Test results as given in the supplement of paper PMC10849652.
The list shows a part of the results.

Chains of the proteins cited; added tags and fusions are not shown. Lines headed by an entry give the natural chain unless they say otherwise; changes in a name come on top.
UniProt O95336: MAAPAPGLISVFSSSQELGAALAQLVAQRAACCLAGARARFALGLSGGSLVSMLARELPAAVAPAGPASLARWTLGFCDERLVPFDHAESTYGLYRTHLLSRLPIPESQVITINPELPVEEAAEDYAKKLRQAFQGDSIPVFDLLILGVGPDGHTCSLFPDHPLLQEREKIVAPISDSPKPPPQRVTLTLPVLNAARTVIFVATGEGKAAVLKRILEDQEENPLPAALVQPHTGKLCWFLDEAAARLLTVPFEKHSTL
UniProt Q13393: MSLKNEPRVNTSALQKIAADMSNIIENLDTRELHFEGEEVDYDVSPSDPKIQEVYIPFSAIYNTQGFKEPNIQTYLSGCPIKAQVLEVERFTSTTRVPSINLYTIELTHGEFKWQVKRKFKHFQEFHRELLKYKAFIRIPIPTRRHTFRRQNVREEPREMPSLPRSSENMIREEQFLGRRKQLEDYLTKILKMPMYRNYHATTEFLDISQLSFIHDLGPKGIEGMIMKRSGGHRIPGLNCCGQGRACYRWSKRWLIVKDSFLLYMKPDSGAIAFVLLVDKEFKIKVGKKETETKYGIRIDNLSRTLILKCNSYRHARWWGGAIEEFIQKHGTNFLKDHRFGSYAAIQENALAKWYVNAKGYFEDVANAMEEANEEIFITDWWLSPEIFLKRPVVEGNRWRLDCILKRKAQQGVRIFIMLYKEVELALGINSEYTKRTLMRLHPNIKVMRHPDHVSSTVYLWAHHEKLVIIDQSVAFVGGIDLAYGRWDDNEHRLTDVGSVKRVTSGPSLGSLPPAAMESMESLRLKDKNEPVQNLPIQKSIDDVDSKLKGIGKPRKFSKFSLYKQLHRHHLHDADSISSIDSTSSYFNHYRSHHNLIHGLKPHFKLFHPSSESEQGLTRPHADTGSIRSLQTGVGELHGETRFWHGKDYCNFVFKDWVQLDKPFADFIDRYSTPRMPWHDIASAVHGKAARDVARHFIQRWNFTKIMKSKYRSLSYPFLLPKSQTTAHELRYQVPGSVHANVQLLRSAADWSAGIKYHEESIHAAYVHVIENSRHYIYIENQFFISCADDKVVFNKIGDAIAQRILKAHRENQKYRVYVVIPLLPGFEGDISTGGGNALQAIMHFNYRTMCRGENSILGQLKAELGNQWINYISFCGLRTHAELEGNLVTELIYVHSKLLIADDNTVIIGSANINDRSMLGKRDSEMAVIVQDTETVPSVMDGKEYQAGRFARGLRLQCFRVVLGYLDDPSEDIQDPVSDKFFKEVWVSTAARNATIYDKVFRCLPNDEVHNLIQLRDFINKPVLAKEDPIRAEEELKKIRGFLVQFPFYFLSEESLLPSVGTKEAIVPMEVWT
UniProt Q8WUB8: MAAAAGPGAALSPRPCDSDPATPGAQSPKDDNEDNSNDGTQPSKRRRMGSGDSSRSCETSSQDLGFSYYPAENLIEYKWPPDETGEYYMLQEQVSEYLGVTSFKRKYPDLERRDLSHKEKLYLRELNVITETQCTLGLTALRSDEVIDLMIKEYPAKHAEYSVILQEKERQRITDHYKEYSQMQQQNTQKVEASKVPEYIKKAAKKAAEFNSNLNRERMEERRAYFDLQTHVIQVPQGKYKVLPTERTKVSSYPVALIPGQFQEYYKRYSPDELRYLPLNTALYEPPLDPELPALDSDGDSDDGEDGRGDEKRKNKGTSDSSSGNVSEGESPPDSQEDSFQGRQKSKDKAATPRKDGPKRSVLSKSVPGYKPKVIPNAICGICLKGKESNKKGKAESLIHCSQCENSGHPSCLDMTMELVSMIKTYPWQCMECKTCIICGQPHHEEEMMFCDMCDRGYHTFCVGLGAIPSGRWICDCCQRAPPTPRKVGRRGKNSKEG
UniProt P16885: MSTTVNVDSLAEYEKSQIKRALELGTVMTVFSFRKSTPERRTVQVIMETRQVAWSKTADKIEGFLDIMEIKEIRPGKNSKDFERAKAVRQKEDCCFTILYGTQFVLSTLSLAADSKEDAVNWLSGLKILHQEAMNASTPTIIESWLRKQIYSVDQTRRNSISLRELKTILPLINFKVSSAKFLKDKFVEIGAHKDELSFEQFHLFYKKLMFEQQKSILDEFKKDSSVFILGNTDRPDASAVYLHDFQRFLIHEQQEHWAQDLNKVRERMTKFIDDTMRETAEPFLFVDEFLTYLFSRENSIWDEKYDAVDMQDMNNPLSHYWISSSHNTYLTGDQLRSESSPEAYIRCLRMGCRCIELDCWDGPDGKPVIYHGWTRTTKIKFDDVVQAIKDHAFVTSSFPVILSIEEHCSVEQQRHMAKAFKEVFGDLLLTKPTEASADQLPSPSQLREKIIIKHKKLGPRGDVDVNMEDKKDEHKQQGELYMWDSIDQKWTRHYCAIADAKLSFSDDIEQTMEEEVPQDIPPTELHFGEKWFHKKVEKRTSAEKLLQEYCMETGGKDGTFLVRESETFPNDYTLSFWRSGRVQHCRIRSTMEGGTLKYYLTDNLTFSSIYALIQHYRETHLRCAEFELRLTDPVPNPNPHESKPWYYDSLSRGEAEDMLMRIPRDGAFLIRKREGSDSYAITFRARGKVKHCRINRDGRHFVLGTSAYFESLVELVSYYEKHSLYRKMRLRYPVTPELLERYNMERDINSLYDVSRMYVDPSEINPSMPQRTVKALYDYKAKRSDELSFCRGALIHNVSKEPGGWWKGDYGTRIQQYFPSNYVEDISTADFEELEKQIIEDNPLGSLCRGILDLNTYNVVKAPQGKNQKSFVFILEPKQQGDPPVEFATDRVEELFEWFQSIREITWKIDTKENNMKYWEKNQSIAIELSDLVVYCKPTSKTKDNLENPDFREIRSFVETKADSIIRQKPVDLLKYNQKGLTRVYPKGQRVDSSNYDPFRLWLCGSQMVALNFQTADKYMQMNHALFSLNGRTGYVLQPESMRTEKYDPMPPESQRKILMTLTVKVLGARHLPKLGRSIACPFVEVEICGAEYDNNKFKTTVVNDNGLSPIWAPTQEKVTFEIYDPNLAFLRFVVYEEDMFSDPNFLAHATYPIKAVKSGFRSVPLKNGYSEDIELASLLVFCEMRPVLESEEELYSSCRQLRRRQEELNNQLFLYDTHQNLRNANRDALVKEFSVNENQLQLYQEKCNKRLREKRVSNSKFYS
UniProt O15173: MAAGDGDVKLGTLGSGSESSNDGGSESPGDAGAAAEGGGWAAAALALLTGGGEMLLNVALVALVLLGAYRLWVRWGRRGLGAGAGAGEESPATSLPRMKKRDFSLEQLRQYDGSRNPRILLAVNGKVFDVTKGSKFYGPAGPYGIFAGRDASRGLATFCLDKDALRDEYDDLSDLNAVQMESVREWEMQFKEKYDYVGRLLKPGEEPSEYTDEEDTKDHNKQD
UniProt P48739: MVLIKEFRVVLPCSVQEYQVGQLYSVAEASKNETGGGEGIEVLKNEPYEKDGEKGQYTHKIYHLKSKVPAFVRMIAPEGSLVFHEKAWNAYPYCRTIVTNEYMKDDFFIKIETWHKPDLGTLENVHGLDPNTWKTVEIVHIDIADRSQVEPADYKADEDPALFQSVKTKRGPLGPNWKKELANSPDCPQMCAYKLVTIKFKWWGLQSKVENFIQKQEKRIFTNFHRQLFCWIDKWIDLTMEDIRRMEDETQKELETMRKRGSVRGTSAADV
UniProt Q8IV08: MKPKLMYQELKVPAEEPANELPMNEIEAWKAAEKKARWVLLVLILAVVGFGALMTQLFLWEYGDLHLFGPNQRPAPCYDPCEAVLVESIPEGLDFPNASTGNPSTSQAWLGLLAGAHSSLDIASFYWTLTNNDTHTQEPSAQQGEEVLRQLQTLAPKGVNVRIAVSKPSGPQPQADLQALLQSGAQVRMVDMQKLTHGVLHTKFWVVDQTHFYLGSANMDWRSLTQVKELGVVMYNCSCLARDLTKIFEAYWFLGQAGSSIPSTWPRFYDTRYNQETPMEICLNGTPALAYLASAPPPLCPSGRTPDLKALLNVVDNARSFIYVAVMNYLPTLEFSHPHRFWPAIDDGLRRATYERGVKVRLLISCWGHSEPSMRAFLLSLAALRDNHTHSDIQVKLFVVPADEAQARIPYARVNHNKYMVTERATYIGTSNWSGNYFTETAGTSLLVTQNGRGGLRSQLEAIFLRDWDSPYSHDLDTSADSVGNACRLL
UniProt Q7RTV0, whole entry, looked up: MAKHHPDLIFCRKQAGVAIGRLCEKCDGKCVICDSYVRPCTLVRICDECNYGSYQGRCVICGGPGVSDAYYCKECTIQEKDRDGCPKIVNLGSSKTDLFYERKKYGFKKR
UniProt Q99453, whole entry, looked up: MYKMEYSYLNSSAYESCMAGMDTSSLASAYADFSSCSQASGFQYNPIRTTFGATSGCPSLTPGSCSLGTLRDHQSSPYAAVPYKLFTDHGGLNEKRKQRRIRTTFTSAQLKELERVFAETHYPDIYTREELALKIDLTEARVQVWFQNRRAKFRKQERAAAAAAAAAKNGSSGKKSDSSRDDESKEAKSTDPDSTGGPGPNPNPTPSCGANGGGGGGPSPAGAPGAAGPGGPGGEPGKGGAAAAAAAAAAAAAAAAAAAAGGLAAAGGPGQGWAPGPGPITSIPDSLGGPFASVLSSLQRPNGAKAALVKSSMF
UniProt Q7Z7B1: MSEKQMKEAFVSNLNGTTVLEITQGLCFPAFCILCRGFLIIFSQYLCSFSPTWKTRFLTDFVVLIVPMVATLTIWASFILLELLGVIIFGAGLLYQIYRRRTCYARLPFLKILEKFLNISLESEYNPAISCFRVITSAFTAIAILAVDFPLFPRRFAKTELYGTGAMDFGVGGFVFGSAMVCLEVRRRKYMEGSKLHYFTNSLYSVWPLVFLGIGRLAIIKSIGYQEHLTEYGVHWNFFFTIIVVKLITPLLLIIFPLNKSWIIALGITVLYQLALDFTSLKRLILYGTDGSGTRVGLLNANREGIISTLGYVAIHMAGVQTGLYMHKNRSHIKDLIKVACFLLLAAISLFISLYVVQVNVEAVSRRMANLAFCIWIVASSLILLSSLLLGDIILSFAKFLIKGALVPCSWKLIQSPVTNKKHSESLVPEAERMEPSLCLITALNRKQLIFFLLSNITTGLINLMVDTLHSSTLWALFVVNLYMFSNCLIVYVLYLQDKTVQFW
UniProt Q8IUZ5: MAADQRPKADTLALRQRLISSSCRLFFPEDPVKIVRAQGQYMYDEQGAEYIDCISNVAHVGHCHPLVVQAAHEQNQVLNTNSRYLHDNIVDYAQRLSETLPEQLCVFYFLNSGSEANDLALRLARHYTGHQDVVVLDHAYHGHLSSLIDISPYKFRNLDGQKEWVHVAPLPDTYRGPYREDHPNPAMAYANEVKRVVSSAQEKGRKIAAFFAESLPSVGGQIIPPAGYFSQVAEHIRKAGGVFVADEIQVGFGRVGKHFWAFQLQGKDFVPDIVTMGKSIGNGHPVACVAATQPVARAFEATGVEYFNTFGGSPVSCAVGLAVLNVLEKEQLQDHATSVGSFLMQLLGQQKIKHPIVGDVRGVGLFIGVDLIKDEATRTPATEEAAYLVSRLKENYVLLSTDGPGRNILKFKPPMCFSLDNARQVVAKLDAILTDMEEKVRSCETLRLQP
UniProt Q96S52: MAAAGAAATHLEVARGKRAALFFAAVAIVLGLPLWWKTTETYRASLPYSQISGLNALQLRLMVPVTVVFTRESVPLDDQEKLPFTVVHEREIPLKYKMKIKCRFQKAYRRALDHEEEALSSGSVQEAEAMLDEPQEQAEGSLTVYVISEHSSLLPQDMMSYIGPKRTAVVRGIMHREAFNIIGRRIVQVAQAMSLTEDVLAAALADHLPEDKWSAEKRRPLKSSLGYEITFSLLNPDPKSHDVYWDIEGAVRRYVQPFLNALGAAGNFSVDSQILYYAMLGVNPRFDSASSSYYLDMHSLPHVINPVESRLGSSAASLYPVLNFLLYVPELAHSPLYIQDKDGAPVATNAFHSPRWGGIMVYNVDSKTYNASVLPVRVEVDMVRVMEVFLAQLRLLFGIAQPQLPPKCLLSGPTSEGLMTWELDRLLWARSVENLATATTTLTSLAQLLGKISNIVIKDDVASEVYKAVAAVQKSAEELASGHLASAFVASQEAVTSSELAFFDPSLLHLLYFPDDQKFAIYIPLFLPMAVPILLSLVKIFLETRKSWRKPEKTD
UniProt Q03405, whole entry, looked up: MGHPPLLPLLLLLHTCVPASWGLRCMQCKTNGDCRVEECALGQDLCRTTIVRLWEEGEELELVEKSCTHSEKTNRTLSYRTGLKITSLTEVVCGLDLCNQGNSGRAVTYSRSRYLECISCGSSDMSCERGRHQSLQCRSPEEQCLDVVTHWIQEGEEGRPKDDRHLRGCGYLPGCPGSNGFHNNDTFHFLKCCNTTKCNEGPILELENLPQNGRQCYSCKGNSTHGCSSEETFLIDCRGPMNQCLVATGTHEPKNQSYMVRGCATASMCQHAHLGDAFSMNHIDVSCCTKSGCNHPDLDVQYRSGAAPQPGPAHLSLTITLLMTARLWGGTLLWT
UniProt Q9Y2B2: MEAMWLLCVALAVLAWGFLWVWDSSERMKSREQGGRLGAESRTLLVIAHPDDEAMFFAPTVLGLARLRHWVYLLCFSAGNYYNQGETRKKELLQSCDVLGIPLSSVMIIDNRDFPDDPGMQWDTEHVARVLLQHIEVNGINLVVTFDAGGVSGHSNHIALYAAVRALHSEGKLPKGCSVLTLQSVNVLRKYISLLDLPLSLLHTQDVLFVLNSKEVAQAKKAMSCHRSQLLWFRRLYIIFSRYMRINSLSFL

Legend:
Test in all cases: log2 fold change, soluble protein after heating vs DMSO (PISA); higher = thermal stabilisation; K562 lysate, 10 uM; active = over 0.2 and 3.5 SD of the protein, either way, in both replicates (recomputed)
[1] = compound: NCC(=O)Nc1ccc(-n2nc(C(F)(F)F)cc2-c2ccc3c(ccc4ccccc43)c2)cc1
Outline: (§1)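 Thermal stability, expressed as log-two fold change relative to solvent controls, is given from duplicates. Crude K562 extract in PBS pH 7.4 with 1 mM MgCl2, at 1 mg/mL protein, was treated with 10 μM compound for 30 min and heated in aliquots for 3 min across 48°C-58°C. After pooling, adjustment to 0.5% NP-40 at 4°C and centrifugation at 21,000xg for 90 min, supernatant protein was measured by TMTpro 16plex LC-MS/MS with channel sums equalised.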

[2] = compound: O=C(CCCCCCC(=O)Nc1ccccc1)NO [vorinostat]
Outline: as §1

[3] = compound: O=C(O)c1ccc2c(c1)nc(Nc1cccc(Cl)c1)c1ccncc12 [silmitasertib]
Outline: as §1

[4] = compound: O=C1NC(=O)C(c2cnc3ccccn23)=C1c1cn2c3c(cc(F)cc13)CN(C(=O)N1CCCCC1)CC2
Outline: as §1

[5] = compound: c1cn2cc(-c3ccc4cn[nH]c4c3)nc(Nc3ccc(N4CCOCC4)cc3)c2n1 [entospletinib]
Outline: as §1

Measured: log2 fold change

PGLS (UniProt O95336)
inactive: [1] -0.08 | [2] 0.079 | [3] -0.034 | [4] 0.072 | [5] 0.003

PKNOX1 (UniProt P55347)
inactive: [1] 0.043 | [2] -0.148 | [3] -0.013 | [4] 0.031 | [5] -0.139

PLD1 (UniProt Q13393)
inactive: [1] -0.013 | [2] -0.005 | [3] 0.021 | [4] 0.035 | [5] -0.04

PLBD1 (UniProt Q6P4A8)
inactive: [1] -0.027 | [2] 0.123 | [3] -0.062 | [4] -0.035 | [5] -0.08

PHF10 (UniProt Q8WUB8)
inactive: [1] -0.007 | [2] 0.024 | [3] -0.047 | [4] 0.054 | [5] 0.015

PHF8 (UniProt Q9UPP1)
inactive: [1] 0.103 | [2] 0.408 | [3] -0.106 | [4] -0.004 | [5] 0.13

Looked up one by one from above, two records:
PHF10 (UniProt Q8WUB8)
inactive: [1] -0.007 | [2] 0.024 | [3] -0.047 | [4] 0.054 | [5] 0.015

PKNOX1 (UniProt P55347)
inactive: [1] 0.043 | [2] -0.148 | [3] -0.013 | [4] 0.031 | [5] -0.139

(listing goes on)

PIN4 isoform 2 (UniProt Q9Y237)
inactive: [1] -0.001 | [2] 0.075 | [3] -0.005 | [4] -0.031 | [5] -0.013

PHB2 (UniProt Q99623)
inactive: [1] 0.015 | [2] 0.121 | [3] 0.003 | [4] -0.023 | [5] 0

PGS1 (UniProt Q32NB8)
inactive: [1] 0.079 | [2] 0.078 | [3] 0.006 | [4] 0.066 | [5] -0.101

PLCB3 (UniProt Q01970)
inactive: [1] -0.021 | [2] 0.017 | [3] -0.006 | [4] -0.007 | [5] -0.016

PIGG (UniProt Q5H8A4)
inactive: [1] 0.167 | [2] 0.095 | [3] -0.017 | [4] -0.115 | [5] 0.032

PIK3R4 (UniProt Q99570)
inactive: [1] -0.003 | [2] -0.104 | [3] 0.071 | [4] 0.048 | [5] 0.013

PLCG2 (UniProt P16885)
inactive: [1] 0.2 | [2] -0.044 | [3] 0.011 | [4] -0.053 | [5] -0.038

PLCB2 (UniProt Q00722)
inactive: [1] 0.04 | [2] 0.05 | [3] -0.05 | [4] 0.089 | [5] -0.009

PIGN (UniProt O95427)
inactive: [1] 0.022 | [2] -0.017 | [3] 0.136 | [5] -0.126

PGRMC2 isoform 2 (UniProt O15173)
inactive: [1] -0.023 | [2] 0.015 | [3] -0.028 | [4] 0.01 | [5] 0.009

PI4KB (UniProt Q9UBF8)
inactive: [1] -0.085 | [2] -0.132 | [3] 0.151 | [4] -0.044 | [5] 0.184

PITHD1 (UniProt Q9GZP4)
inactive: [1] 0.041 | [2] 0.101 | [3] -0.031 | [4] 0.05 | [5] -0.049

PICALM (UniProt H0YEH1)
inactive: [1] -0.048 | [2] 0.037 | [3] -0.045 | [4] -0.075 | [5] -0.237

PITPNB isoform 3 (UniProt P48739)
inactive: [1] -0.015 | [2] 0.099 | [3] 0.015 | [4] -0.013 | [5] 0.051

PLD3 (UniProt Q8IV08)
inactive: [1] -0.012 | [2] 0.073 | [3] 0.017 | [4] -0.031 | [5] 0.013

PHOSPHO2 (UniProt Q8TCD6)
inactive: [1] -0.051 | [2] 0.181 | [3] -0.002 | [4] 0.001 | [5] -0.116

PHKG2 (UniProt P15735)
inactive: [1] -0.029 | [2] 0.013 | [3] 0.008 | [4] -0.022 | [5] 0.026

PI4K2B (UniProt Q8TCG2)
inactive: [1] -0.038 | [2] -0.054 | [3] 0.041 | [4] 0.011 | [5] 0.014

PHF5A (UniProt Q7RTV0)
inactive: [1] -0.015 | [2] 0.087 | [3] 0 | [4] 0.072 | [5] 0.03

PHOX2B (UniProt Q99453)
inactive: [1] 0.045 | [4] -0.131 | [5] -0.058

PI4K2A (UniProt Q9BTU6)
inactive: [1] -0.006 | [2] -0.005 | [3] 0.074 | [4] -0.009 | [5] 0.001

PIGW (UniProt Q7Z7B1)
inactive: [1] -0.064 | [4] 0.001

PKN2 (UniProt Q16513)
inactive: [1] 0.051 | [2] 0.005 | [3] -0.023 | [4] -0.021 | [5] -0.037

PIM1 isoform 2 (UniProt P11309)
inactive: [1] 0.098 | [2] -0.188 | [3] 0.212 | [4] 0.019 | [5] 0.008

PHYKPL (UniProt Q8IUZ5)
inactive: [1] -0.071 | [2] 0.009 | [3] 0.018 | [4] -0.008 | [5] -0.015

PIGS (UniProt Q96S52)
inactive: [1] 0.002 | [2] 0.175 | [3] 0.02 | [4] 0.027 | [5] -0.025

PIN1 (UniProt Q13526)
inactive: [1] -0.002 | [2] 0.008 | [3] -0.008 | [4] 0.065 | [5] -0.002

PHKG1 isoform 2 (UniProt Q16816)
inactive: [1] 0.053 | [2] -0.342 | [3] 0.259 | [4] -0.123 | [5] -0.002

PIGQ (UniProt Q9BRB3)
inactive: [1] -0.101 | [4] 0.014 | [5] -0.098

PIP5K1C isoform 3 (UniProt O60331)
inactive: [2] -0.1 | [3] 0.087 | [4] 0.086 | [5] 0.27

PLAUR (UniProt Q03405)
inactive: [2] -0.063 | [3] -0.157 | [5] -0.051

PIGL (UniProt Q9Y2B2)
inactive: [2] 0.09 | [3] -0.068 | [4] 0.071 | [5] -0.426

PLEK (UniProt P08567)
inactive: [2] 0 | [3] -0.066 | [4] 0.008 | [5] 0

PHOSPHO2 (UniProt C9JD35)
inactive: [4] 0.004 | [5] 0.155
